Data taken from PMC2854689.
These are yes or no findings as the source states them, for the method shown. Some results given as binding are weak or reduced against the parent protein; the word gives no strength. Tags and fused reporters may be left off the sequences shown.

Target: T1, NLS-RFP-AKR2A (three tandem copies of the SV-40 large T antigen NLS fused to RFP and Arabidopsis AKR2A) (Arabidopsis) (UniProt Q9SAR5)
T1 sequence: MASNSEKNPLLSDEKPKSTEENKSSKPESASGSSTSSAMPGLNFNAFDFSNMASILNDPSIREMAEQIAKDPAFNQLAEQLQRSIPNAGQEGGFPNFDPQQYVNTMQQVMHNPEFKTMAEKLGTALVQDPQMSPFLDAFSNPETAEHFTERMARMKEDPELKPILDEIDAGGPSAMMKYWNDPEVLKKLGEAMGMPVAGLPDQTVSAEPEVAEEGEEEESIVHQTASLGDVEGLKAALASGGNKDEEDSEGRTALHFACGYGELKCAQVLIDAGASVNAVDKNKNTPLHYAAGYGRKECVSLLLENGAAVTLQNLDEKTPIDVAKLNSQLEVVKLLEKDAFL
Assay: nuclear mislocalization assay; co-expression in tobacco BY-2 cells (biolistic bombardment, 500 ng of the plasmid for the GFP fusion protein); relocation of the partner to the nucleus by NLS-RFP-AKR2A, against NLS-RFP alone, seen by epi-(immuno)fluorescence microscopy

B1: Toc33-GFP (Toc33 fused at its C terminus to GFP) (protein, UniProt O23680 1-297)
chain: MGSLVREWVGFQQFPAATQEKLIEFFGKLKQKDMNSMTVLVLGKGGVGKSSTVNSLIGEQVVRVSPFQAEGLRPVMVSRTMGGFTINIIDTPGLVEAGYVNHQALELIKGFLVNRTIDVLLYVDRLDVYRVDELDKQVVIAITQTFGKEIWCKTLLVLTHAQFSPPDELSYETFSSKRSDSLLKTIRAGSKMRKQEFEDSAIAVVYAENSGRCSKNDKDEKALPNGEAWIPNLVKAITDVATNQRKAIHVDKKMVDGSYSDDKGKKLIPLIIGAQYLIVKMIQGAIRNDIKTSGKPL
For B1, the binding was “binds”.
